PubChem BioAssay AID504793 – Drosophila RNAi Screening Center | 2011

Assay: 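Whole-genome screen for parts of the DNA damage checkpoint at G2/M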 (primary screen)
System: Drosophila S2R+ cells
Reagent: long dsRNA against Drosophila genes, about 0.25 µg dsRNA per well
Duration: 4 days of dsRNA, then 4 hours of drug before read-out
Challenge: doxorubicin 0.5 µM for 4 hours to cause double-strand breaks, in cells also given a low, harmless dose of dsRNA against nbs to sensitise the assay
Detection: 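Per-well count of mitotic cells stained for phospho-histone H3 after doxorubicin exposure, used as mitotic index; counts are raw and not normalised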
Reading the numbers: mitotic cells: higher = more cells in mitosis, weaker G2 arrest
Hit rule: 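Genes are called active only when high mitotic counts were reproduced with independent dsRNAs and mitosis was checked for delay without damage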
Calls: active = confirmed in follow-up tests; inactive = not confirmed
The deposit covers about 23,000 reagents; shown is an unselected part of those with a known target gene and a result. Of all reagents, 62 (0.27%) got an active call. 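Calls come from follow-up tests whose scores are not deposited, so confirmed genes may have low counts here; counts are not normalised per plate.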 Raw values vary from plate to plate and are shown uncorrected. A plus sign joins genes that one reagent is predicted to hit.

Target gene | amplicon | mitotic cells, replicate 1 | Call
Usp32 | DRSC10979 | 5 | inactive
Ntf-2r | DRSC02019 | 2 | inactive
CG5726 | DRSC06946 | 6 | inactive
CG5726 | DRSC25145 | 4 | inactive
CG12091 | DRSC08251 | 9 | inactive
CG12091 | DRSC24873 | 8 | inactive
CG31921 | DRSC00013 | 6 | inactive
Mettl3 | DRSC15921 | 9 | inactive
Mettl3 | DRSC27423 | 7 | inactive
CG2061 | DRSC19348 | 4 | inactive
Nuf2 | DRSC03123 | 13 | inactive
Not11 | DRSC04204 | 10 | inactive
iotaTry | DRSC07634 | 6 | inactive
vap | DRSC20275 | 8 | inactive
Mkrn1 | DRSC11870 | 7 | inactive
Mkrn1 | DRSC25478 | 3 | inactive
CG17005 | DRSC02556 | 3 | inactive
orion | DRSC18213 | 15 | inactive
orion | DRSC18214 | 14 | inactive
eIF3j | DRSC06107 | 7 | inactive
Vps4 | DRSC19338 | 13 | inactive
Vps4 | DRSC25068 | 7 | inactive
Actbeta | DRSC17185 | 35 | inactive
Actbeta | DRSC17217 | 10 | inactive
Ost48 | DRSC18693 | 9 | inactive
RpS12 | DRSC11270 | 6 | inactive
CG32720 | DRSC17529 | 8 | inactive
slim | DRSC06921 | 8 | inactive
IntS11 | DRSC15407 | 14 | inactive
IntS11 | DRSC26912 | 7 | inactive
CG18231 | DRSC10307 | 5 | inactive
CG14752 | DRSC06488 | 3 | inactive
Zip102B | DRSC17155 | 25 | inactive
Zip102B | DRSC26001 | 5 | inactive
CG14710 | DRSC14933 | 10 | inactive
Usp30 | DRSC18265 | 9 | inactive
Usp30 | DRSC29538 | 7 | inactive
GNBP3 | DRSC11170 | 3 | inactive

Targets listed so far whose target name starts with M or m:
Target gene | amplicon | mitotic cells, replicate 1 | Call
Mettl3 | DRSC15921 | 9 | inactive
Mettl3 | DRSC27423 | 7 | inactive
Mkrn1 | DRSC11870 | 7 | inactive
Mkrn1 | DRSC25478 | 3 | inactive

Additional entries follow.
Target gene | amplicon | mitotic cells, replicate 1 | Call
Nadk2 | DRSC07072 | 8 | inactive
CG15478 | DRSC18057 | 12 | inactive
CG15478 | DRSC25277 | 6 | inactive
CG3492 | DRSC04373 | 1 | inactive
Cpr47Ed | DRSC07331 | 7 | inactive
CG11200 | DRSC06060 | 5 | inactive
CG11200 | DRSC27196 | 9 | inactive
MrgBP | DRSC06417 | 10 | inactive
MrgBP | DRSC29948 | 13 | inactive
Coq3 | DRSC03168 | 5 | inactive
TM9SF2 | DRSC03197 | 7 | inactive
CG33722 + CG18749 | DRSC12674 | 11 | inactive
CG33722 + CG18749 | DRSC15386 | 7 | inactive
CG33722 + CG18749 | DRSC28983 | 1 | inactive
Fur2 | DRSC19817 | 5 | inactive
CG44836 | DRSC09915 | 1 | inactive
CG44836 | DRSC26572 | 9 | inactive
Roc1a | DRSC18483 | 10 | inactive
Atg18a | DRSC10943 | 5 | inactive
CG43867 | DRSC17836 | 5 | inactive
CG43867 | DRSC17837 | 8 | inactive
CG43867 | DRSC17943 | 5 | inactive
CG43867 | DRSC28000 | 5 | inactive
Doc1 | DRSC11146 | 7 | inactive
Doc1 | DRSC25859 | 5 | inactive
CG7335 | DRSC10816 | 4 | inactive
CG7335 | DRSC26314 | 3 | inactive
jdp | DRSC16975 | 7 | inactive
jdp | DRSC29394 | 7 | inactive
CG6454 | DRSC16044 | 2 | inactive
CG6454 | DRSC24613 | 2 | inactive
CG6638 | DRSC10680 | 3 | inactive
CG6638 | DRSC24246 | 2 | inactive
UQCR-C2 | DRSC10405 | 6 | inactive
UQCR-C2 | DRSC28912 | 1 | inactive
Pex10 | DRSC08599 | 22 | inactive
Pex10 | DRSC22021 | 7 | inactive
